Measurements taken from article PMC7031079, “ATBS1-INTERACTING FACTOR 2 negatively regulates dark- and brassinosteroid-induced leaf senescence through interactions with INDUCER OF CBF EXPRESSION 1” (Journal of Experimental Botany, 2019).
No constants are given. Whether binding was seen depends on the method and setting. For some assays here: Binding seen in cells or lysates may run through a third protein. Some binding calls cover weakened binding; strength is not graded here. For some assays here: Sequences can lack the tags named with a protein. One block for each binder: values may come before it.

Experiments:
[1] = target: T1, ICE1FL-myc (Arabidopsis thaliana, UniProt Q9LSE2 1-494); test: co-IP; co-infiltrated tobacco (N. benthamiana) leaves; total proteins immunoprecipitated with anti-myc antibody on Protein G magnetic beads; blots with anti-GFP and anti-myc
T1 sequence (looked up): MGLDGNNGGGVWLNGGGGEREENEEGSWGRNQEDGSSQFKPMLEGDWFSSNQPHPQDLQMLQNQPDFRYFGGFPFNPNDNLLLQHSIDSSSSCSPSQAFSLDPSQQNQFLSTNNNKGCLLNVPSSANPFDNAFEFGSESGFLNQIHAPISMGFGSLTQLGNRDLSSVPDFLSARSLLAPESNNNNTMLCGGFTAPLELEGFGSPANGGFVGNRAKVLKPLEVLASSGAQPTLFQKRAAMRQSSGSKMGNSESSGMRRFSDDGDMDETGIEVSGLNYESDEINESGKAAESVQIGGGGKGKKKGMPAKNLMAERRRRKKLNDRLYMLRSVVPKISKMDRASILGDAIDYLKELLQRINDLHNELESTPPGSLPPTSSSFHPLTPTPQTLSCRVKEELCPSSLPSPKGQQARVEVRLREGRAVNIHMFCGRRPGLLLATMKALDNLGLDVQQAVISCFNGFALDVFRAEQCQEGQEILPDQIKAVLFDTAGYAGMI

[2] = target: T2, BIN2-myc (Arabidopsis thaliana) (UniProt Q39011); test: as above
T2 sequence: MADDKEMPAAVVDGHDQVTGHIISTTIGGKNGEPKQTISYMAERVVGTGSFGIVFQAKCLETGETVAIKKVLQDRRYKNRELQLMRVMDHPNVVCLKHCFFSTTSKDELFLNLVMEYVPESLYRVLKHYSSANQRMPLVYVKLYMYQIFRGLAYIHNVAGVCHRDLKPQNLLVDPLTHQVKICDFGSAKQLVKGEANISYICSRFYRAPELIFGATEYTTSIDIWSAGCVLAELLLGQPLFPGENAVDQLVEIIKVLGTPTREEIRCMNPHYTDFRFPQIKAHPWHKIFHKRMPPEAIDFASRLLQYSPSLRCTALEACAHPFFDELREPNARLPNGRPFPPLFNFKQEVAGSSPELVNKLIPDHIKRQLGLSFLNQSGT

[3] = target: T3, ICE1FL-cCFP (Arabidopsis thaliana) (UniProt Q9LSE2); test: split reporter; BiFC with nYFP and cCFP fusions co-infiltrated by Agrobacterium into tobacco (N. benthamiana) leaves; epidermal cells seen by confocal microscopy after 36-48 h
T3 sequence: T1 sequence (looked up)

[4] = target: T4, full-length protein of ICE1 (ICE1FL-pGBKT7) (Arabidopsis thaliana) (UniProt Q9LSE2); test: two-hybrid; pGBKT7 and pGADT7 constructs co-transformed into S. cerevisiae AH109; beta-galactosidase activity with chlorophenol red-beta-D-galactopyranoside as substrate
T4 sequence: T1 sequence (looked up)

[5] = target: T5, full-length AIF2 (AIF2FL) of the yeast test against ICE1 proteins and BIN2-pGADT7 (Fig. 4C) (Arabidopsis thaliana) (UniProt Q9C8Z9); test: as above
T5 sequence: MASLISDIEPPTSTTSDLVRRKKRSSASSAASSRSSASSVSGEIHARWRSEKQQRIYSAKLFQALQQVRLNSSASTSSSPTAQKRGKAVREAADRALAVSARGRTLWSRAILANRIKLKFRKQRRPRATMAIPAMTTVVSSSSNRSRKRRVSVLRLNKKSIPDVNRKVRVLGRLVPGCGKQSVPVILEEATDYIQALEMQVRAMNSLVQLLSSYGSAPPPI

binding [1]: binds
binding [2]: binds
binding [3]: binds
B1: AIF2FL-nYFP (natural protein, Arabidopsis thaliana, UniProt Q9C8Z9 1-221, looked up)
chain: T5 sequence

binding [4]: binds
B2: full-length AIF2 in pGADT7 (AIF2FL) (protein, UniProt Q9C8Z9 1-221)
chain: T5 sequence

binding [5]: binds
B3: full-length ICE1 (ICE1FL) of the yeast test against AIF2FL (Fig. 4C) (protein, UniProt Q9LSE2 1-494)
chain: T1 sequence (looked up)
